Experimental data: PubChem BioAssay AID1159578 (Peter MacCallum Cancer Centre, 2015)
Here is a random part of about 18,000 deposited reagents. Of all reagents, about 1,030 (5.7%) got an active call. 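Inactive calls also include pools with fewer than 3300 nuclei, whose migration was not assessed.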 The raw values are shown without normalisation. Further read-outs or replicates are left out here.

Test: 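Genome-wide hunt for genes controlling movement of lymphatic endothelial cells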 (primary screen)
Cell system: human lymphatic endothelial cells
Reagents: siRNA pool against human genes, 40 nM
Timing: 48 h after transfection
Measured: 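High-content imaging of dye-stained cells in a scratch assay measures filled wound area and nuclei per well; duplicate means given as ratio to mock and robust z-score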
Direction: migration robust z-score: higher = faster migration into the scratch; nuclei per well: higher = more cells in the well
Rule for the call: 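Migration changed when robust z exceeds 2 or falls below -2 and mean nuclei number is at least 3300; otherwise not called changed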
Meaning of the calls: active = migration changed; inactive = no migration change, or too few cells

gene knocked down | migration robust z-score | migration class with cell-count check | nuclei per well, duplicate mean | outcome
MORF4L1 | 1.44 | migration z between -2 and 2; enough cells | 4434 | inactive
FNTA | 0.78 | migration z between -2 and 2; enough cells | 4982 | inactive
KIN | -0.94 | migration z between -2 and 2; enough cells | 4506 | inactive
CCDC63 | 1.15 | migration z between -2 and 2; enough cells | 5395 | inactive
RITA1 | 0.22 | migration z between -2 and 2; enough cells | 6324 | inactive
RTL9 | -0.34 | migration z between -2 and 2; enough cells | 6630 | inactive
PLEKHA8 | -0.88 | migration z between -2 and 2; enough cells | 5684 | inactive
SPATA31E1 | -0.01 | migration z between -2 and 2; enough cells | 4374 | inactive
BICRAL | 0.45 | migration z between -2 and 2; enough cells | 5799 | inactive
NAT16 | -1.15 | migration z between -2 and 2; enough cells | 5868 | inactive
IL17RE | -0.54 | migration z between -2 and 2; enough cells | 5985 | inactive
CHRDL1 | -0.3 | migration z between -2 and 2; enough cells | 5641 | inactive
PGLYRP2 | -0.94 | migration z between -2 and 2; enough cells | 5296 | inactive
RINL | 0.16 | migration z between -2 and 2; enough cells | 5771 | inactive
CNOT12 | 0 | migration z between -2 and 2; enough cells | 5795 | inactive
RNF103 | 0.31 | migration z between -2 and 2; enough cells | 4390 | inactive
SOX13 | 1.42 | migration z between -2 and 2; enough cells | 5654 | inactive
GGNBP2 | 0.62 | migration z between -2 and 2; enough cells | 4774 | inactive
NUCLEOLIN | 2.79 | migration z above 2; enough cells | 7000 | active
RHBDL2 | -0.28 | migration z between -2 and 2; enough cells | 5539 | inactive
SMOX | 0.34 | migration z between -2 and 2; enough cells | 5747 | inactive
IGSF1 | -0.02 | migration z between -2 and 2; enough cells | 5977 | inactive
WASHC4 | 0.16 | migration z between -2 and 2; enough cells | 5064 | inactive

Reformatted: 2 of the entries above.
{"gene knocked down": "RITA1", "migration robust z-score": 0.22, "migration class with cell-count check": "migration z between -2 and 2; enough cells", "nuclei per well, duplicate mean": 6324, "outcome": "inactive"}
{"gene knocked down": "RTL9", "migration robust z-score": -0.34, "migration class with cell-count check": "migration z between -2 and 2; enough cells", "nuclei per well, duplicate mean": 6630, "outcome": "inactive"}
